Measurements reported in PubChem BioAssay AID743454 (Peter MacCallum Cancer Centre, 2014)
Shown is an unselected part of about 18,000 reagents tested. 450 of them (2.5%) were called active. 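Single biological run; no consistent viability z cut-off exists, so the class columns, not z-scores, define the calls.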

Purpose: 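Genes whose loss kills vorinostat-resistant colon cancer cells under vorinostat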 (primary screen)
Cell system: human HCT116-VR colon cancer cells, selected for vorinostat resistance
Reagent: siRNA pool against human genes, 40 nM siRNA pool
Timing: vorinostat for 24 h, read-out about 72 h after transfection
Conditions: vorinostat at 2.5 µM final
Measurement: 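Two measures, CellTiter-Fluor viability and luminescent caspase 3/7 activity, each as fold change against same-plate mock wells, mean of duplicates, then screen-wide robust z-score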
Scale: viability robust z-score: higher = more viable cells than screen typical; caspase robust z-score: higher = more caspase 3/7 activity than screen typical
Hit rule: 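Hits are knock-downs in viability class RV1/RV2 or caspase class CA1/CA2, excluding ones that killed cells in the no-drug cell-count arm; hits then retested with single siRNAs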

Depletion of DYNLT4 (dynein light chain Tctex-type 4) gave: viability hit class no change; caspase hit class no change; viability robust z-score 0.8; caspase robust z-score 0.12; inactive.
Silencing of SULT1E1 (sulfotransferase family 1E member 1) resulted in: viability hit class no change; caspase hit class no change; viability robust z-score 0.16; caspase robust z-score -0.78; inactive.
Knock-down of LRRC57 (leucine rich repeat containing 57) gave: viability hit class no change; caspase hit class no change; viability robust z-score -0.28; caspase robust z-score 1.67; inactive.
After knock-down of ZMAT5 (zinc finger matrin-type 5) the results were viability hit class no change; caspase hit class no change; viability robust z-score 0.04; caspase robust z-score -1.03; inactive.
Knock-down of CDK7 (cyclin dependent kinase 7) came out at: viability hit class no change; caspase hit class no change; viability robust z-score 0.2; caspase robust z-score -0.74; inactive.
For IRX3 (iroquois homeobox 3), the values are viability hit class no change; caspase hit class no change; viability robust z-score -0.82; caspase robust z-score 0.46; inactive.
With knock-down of DMXL2 (Dmx like 2), the screen gave viability hit class no change; caspase hit class no change; viability robust z-score 0.16; caspase robust z-score 0.38; inactive.

2 consecutive reagents from above:
ZMAT5 (zinc finger matrin-type 5): viability hit class = no change; caspase hit class = no change; viability robust z-score = 0.04; caspase robust z-score = -1.03; Call = inactive
CDK7 (cyclin dependent kinase 7): viability hit class = no change; caspase hit class = no change; viability robust z-score = 0.2; caspase robust z-score = -0.74; Call = inactive

Further entries follow.
Knock-down of L3MBTL1 (L3MBTL histone methyl-lysine binding protein 1) resulted in: viability hit class no change; caspase hit class no change; viability robust z-score 1.2; caspase robust z-score -0.77; inactive.
Against MRPS18B (mitochondrial ribosomal protein S18B), the values are viability hit class no change; caspase hit class no change; viability robust z-score -0.01; caspase robust z-score -0.74; inactive.
With knock-down of DENND11 (DENN domain containing 11), the screen gave viability hit class no change; caspase hit class no change; viability robust z-score 0.24; caspase robust z-score -0.89; inactive.
After knock-down of WRAP73 (WD repeat containing, antisense to TP73), the record shows viability hit class no change; caspase hit class no change; viability robust z-score -2.09; caspase robust z-score 2.67; inactive.
Knock-down of RAB10 (RAB10, member RAS oncogene family) resulted in: viability hit class no change; caspase hit class no change; viability robust z-score -1.44; caspase robust z-score 0.43; inactive.
CPT1C (carnitine palmitoyltransferase 1C) scored viability hit class no change; caspase hit class no change; viability robust z-score 0.21; caspase robust z-score -0.18; inactive.
Depletion of SENP1 (SUMO specific peptidase 1) came out at: viability hit class no change; caspase hit class no change; viability robust z-score 0.25; caspase robust z-score -0.29; inactive.
